# Test results as given in article PMC7819943, “Rice protein-binding microarrays: a tool to detect cis-acting elements near promoter regions in rice”.
# By UniProt entry, the sequences of proteins in these tests, tags left out.
# UniProt Q0JBA9, entry or part of it: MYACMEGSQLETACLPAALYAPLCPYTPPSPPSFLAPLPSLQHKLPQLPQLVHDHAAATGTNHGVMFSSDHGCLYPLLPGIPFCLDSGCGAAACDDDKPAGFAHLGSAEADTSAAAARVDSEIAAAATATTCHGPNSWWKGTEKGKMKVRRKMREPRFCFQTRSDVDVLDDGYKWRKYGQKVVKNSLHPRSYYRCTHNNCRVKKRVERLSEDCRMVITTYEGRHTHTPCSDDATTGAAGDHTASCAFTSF
# The list shows a part of the results.
# Target: OsWRKY34 (Oryza sativa, UniProt Q0JBA9 1-250)
# Assay: protein-binding microarray (RPBM); PBS, 2% BSA, 51.3 ng/ul salmon testes DNA, 50 uM zinc acetate, 200 nM TF, 25 C, 1 h; high values mean tight binding
# Details: protein: recombinant; tags: N-terminal polyhistidine and DsRed monomer fusion (pET32a); label: CyDye5-dUTP incorporated in the synthesized complementary strand; 3' TTTTT single-stranded linker to array surface; dsDNA, one strand shown
# In short: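 Polyhistidine-tagged DsRed fusions of transcription factors, joined at the N-terminus, were expressed in E. coli BL21-CodonPlus and isolated on Ni–NTA. They were incubated at 200 nM for 1 h at 25 °C on a custom Agilent array, double-stranded and BSA-blocked, in PBS with 2% BSA, salmon testes DNA and 50 µM zinc acetate. The binding signal is per-feature fluorescence intensity (arbitrary units) read on an Axon 4000B scanner after washing.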
row,Sequence,binding signal
1,GTCCGCAAGTCTCGTGCTCTCACTCTCCACCTTCTTCTTCCGGAGTCACCTAGTGCAG,9970 fluorescence intensity (a.u.)
2,ACTTTCCTACACACAAACTTTCAACTTTTTCATCACATCGCGGAGTCACCTAGTGCAG,8900 fluorescence intensity (a.u.)
3,GTCGGCTGGTTTTTTTTGTTTAGGTCGCCCCTGTAACTGACGGAGTCACCTAGTGCAG,11900 fluorescence intensity (a.u.)
4,ATTGGTTTAGTCACAGCTGATGCTGGTCGCACGGCTTTCACGGAGTCACCTAGTGCAG,8190 fluorescence intensity (a.u.)
5,CGCGCGTGTGATTGGCTGGCTTGGTCAGGGTCAACGTTGGCGGAGTCACCTAGTGCAG,8310 fluorescence intensity (a.u.)
6,ATTTTTTTTCAGCCACTTACACAGTAGTTACACCTCATTTCGGAGTCACCTAGTGCAG,10400 fluorescence intensity (a.u.)
7,GTCTCCTCTGTTTATATAAATCCCAAAGGCCTCATTCGCTCGGAGTCACCTAGTGCAG,9360 fluorescence intensity (a.u.)
8,CTCGCGTCAGTCAGTCCCGTCAGCCGTCGTCACCGCCTTGCGGAGTCACCTAGTGCAG,8370 fluorescence intensity (a.u.)
9,ATTCATTCCTATTTGCAATTCAGATTGCTTTTATCTTGTTCGGAGTCACCTAGTGCAG,8170 fluorescence intensity (a.u.)
10,TGGAACTCAGTGCTGCCATATTATTACCCGTTGTTCTTTTCGGAGTCACCTAGTGCAG,12000 fluorescence intensity (a.u.)
11,CCTCACCGATGGATTTTTTAGCCCGATCCTACCCCTCCTACGGAGTCACCTAGTGCAG,10500 fluorescence intensity (a.u.)
12,TCTTTCCTTACCTCGGACGCATAGCCGGTTTGGCCTTTTTCGGAGTCACCTAGTGCAG,8240 fluorescence intensity (a.u.)
13,CATTTAGGCATTTGGAATTTCTGGATTTGTCCCAGCTATCCGGAGTCACCTAGTGCAG,8170 fluorescence intensity (a.u.)
14,TTTCCTTGTTTCGTCCTGATGACTTGCCTCACTCACTATACGGAGTCACCTAGTGCAG,10700 fluorescence intensity (a.u.)
15,GGCGCCCGTCCCGTCTCGTCTTTGTCCCACACGCGCAAGTCGGAGTCACCTAGTGCAG,9690 fluorescence intensity (a.u.)
16,CCCTCATCATTTTCCCATGATTTTTCCCTTCAATTCTTCACGGAGTCACCTAGTGCAG,9430 fluorescence intensity (a.u.)
17,TAACCAACCCCATCACCATCCCATTTTTTCGGATCTGAGACGGAGTCACCTAGTGCAG,8230 fluorescence intensity (a.u.)
18,ATGGAGATGTTATTTGTAGCGCTGCCCTTTTACTATTCGCCGGAGTCACCTAGTGCAG,10700 fluorescence intensity (a.u.)
19,GCGTCCTCTCTCTCTCTCTCTCGATCCACCACCACCCATGCGGAGTCACCTAGTGCAG,8980 fluorescence intensity (a.u.)
20,ATAATTCGTTCGTGCCTTTAATTTGGACTCAGTTGGTTTGCGGAGTCACCTAGTGCAG,8530 fluorescence intensity (a.u.)
21,TCTCTCTCTCTCTTTGTGTCTTTCTCAAGGGAGAATTAACCGGAGTCACCTAGTGCAG,8690 fluorescence intensity (a.u.)

# 11 neighbouring entries already listed, for reference:
row,Sequence,binding signal
7,GTCTCCTCTGTTTATATAAATCCCAAAGGCCTCATTCGCTCGGAGTCACCTAGTGCAG,9360 fluorescence intensity (a.u.)
8,CTCGCGTCAGTCAGTCCCGTCAGCCGTCGTCACCGCCTTGCGGAGTCACCTAGTGCAG,8370 fluorescence intensity (a.u.)
9,ATTCATTCCTATTTGCAATTCAGATTGCTTTTATCTTGTTCGGAGTCACCTAGTGCAG,8170 fluorescence intensity (a.u.)
10,TGGAACTCAGTGCTGCCATATTATTACCCGTTGTTCTTTTCGGAGTCACCTAGTGCAG,12000 fluorescence intensity (a.u.)
11,CCTCACCGATGGATTTTTTAGCCCGATCCTACCCCTCCTACGGAGTCACCTAGTGCAG,10500 fluorescence intensity (a.u.)
12,TCTTTCCTTACCTCGGACGCATAGCCGGTTTGGCCTTTTTCGGAGTCACCTAGTGCAG,8240 fluorescence intensity (a.u.)
13,CATTTAGGCATTTGGAATTTCTGGATTTGTCCCAGCTATCCGGAGTCACCTAGTGCAG,8170 fluorescence intensity (a.u.)
14,TTTCCTTGTTTCGTCCTGATGACTTGCCTCACTCACTATACGGAGTCACCTAGTGCAG,10700 fluorescence intensity (a.u.)
15,GGCGCCCGTCCCGTCTCGTCTTTGTCCCACACGCGCAAGTCGGAGTCACCTAGTGCAG,9690 fluorescence intensity (a.u.)
16,CCCTCATCATTTTCCCATGATTTTTCCCTTCAATTCTTCACGGAGTCACCTAGTGCAG,9430 fluorescence intensity (a.u.)
17,TAACCAACCCCATCACCATCCCATTTTTTCGGATCTGAGACGGAGTCACCTAGTGCAG,8230 fluorescence intensity (a.u.)

# Continued.

row,Sequence,binding signal
1,CCATCACGGCAGCCACTCAGACGTCCTCCCCGCTTTATCACGGAGTCACCTAGTGCAG,11000 fluorescence intensity (a.u.)
2,GAGGGAAGTGTCATCTTCGTCCTGGCATCCTTCAATTCCACGGAGTCACCTAGTGCAG,8430 fluorescence intensity (a.u.)
3,CATGGTCAATCTACTCGTTAACGTACATTCACGGTTATTTCGGAGTCACCTAGTGCAG,8960 fluorescence intensity (a.u.)
4,TTTGCACACGGGTGACTCGTCTCTTTGTACTCACTCTCTCCGGAGTCACCTAGTGCAG,9840 fluorescence intensity (a.u.)
5,TCCTGTTCGTTGACTTCAACCATGTGCCGATCGAACCGTGCGGAGTCACCTAGTGCAG,10600 fluorescence intensity (a.u.)
6,GCAGCAACATGACAACTCTTTACTCCTTCTCGCTAGCTTTCGGAGTCACCTAGTGCAG,8760 fluorescence intensity (a.u.)
7,TGCTTGCAAGCAATGTTGTGTGTAGTGGCTTTGCATTGACCGGAGTCACCTAGTGCAG,9980 fluorescence intensity (a.u.)
8,TTCTCTTCTTCTTCTTGTTGCACACCGCCGGCCGGCCGTGCGGAGTCACCTAGTGCAG,8260 fluorescence intensity (a.u.)
9,ACCATGTTATTATCACTGGTCATCCACTCATTGAACGTGACGGAGTCACCTAGTGCAG,8270 fluorescence intensity (a.u.)
10,ATTTTGGTTATGCTGGATATATATATACTGTATTAATTTACGGAGTCACCTAGTGCAG,8350 fluorescence intensity (a.u.)
11,AAAACTCTAAATGGCTATCTACATACTACCTTCGTTTTTTCGGAGTCACCTAGTGCAG,10100 fluorescence intensity (a.u.)
12,TCTTGTGGGTCTATAATCTTGTATGTAATGCATTAAATTCCGGAGTCACCTAGTGCAG,10400 fluorescence intensity (a.u.)
13,TCTACGGGTATCCCGCGTCGACAATATTCCCATGCATTTACGGAGTCACCTAGTGCAG,10900 fluorescence intensity (a.u.)
14,GGTCATCTTCTCCCTCGCCGGCGAGCGCTTATATAGTCGTCGGAGTCACCTAGTGCAG,8460 fluorescence intensity (a.u.)
15,CTTCCGTTCCGTCTCGTTGTTGTTGCTGCCGCAGCAGCGCCGGAGTCACCTAGTGCAG,8740 fluorescence intensity (a.u.)
16,CCGGTTCGGTTGGCCGTTTGACCGGTCGCCGCGTCGCTATCGGAGTCACCTAGTGCAG,9000 fluorescence intensity (a.u.)
17,CTGGTTGGCTTAGTTATTGTGATTCGATCCTACATTTCCGCGGAGTCACCTAGTGCAG,11100 fluorescence intensity (a.u.)
18,TTCCGTTTGCAAACATATCGTTGGGATTATTCCTCGTCAACGGAGTCACCTAGTGCAG,8590 fluorescence intensity (a.u.)
19,ATGTCAGCCTCACTCCTCTCTTCTTCCCTCTCCCTTCTCTCGGAGTCACCTAGTGCAG,9340 fluorescence intensity (a.u.)
20,GATGGGAGGGGTGGTGGTTGAATACGCGTGACAGTAGGGGCGGAGTCACCTAGTGCAG,12100 fluorescence intensity (a.u.)
21,CGGCCCAAACCATCGCTGCCGCCAGCTCGTGCCGCACAATCGGAGTCACCTAGTGCAG,9040 fluorescence intensity (a.u.)

row,Sequence,binding signal
1,GGTCGCTATTTTCTTCCTTTTCCACACGGACCGAGCACCTCGGAGTCACCTAGTGCAG,8730 fluorescence intensity (a.u.)
2,ATCAATATCTGGGAGGGATTTCGAATGGTCTTTGATAAATCGGAGTCACCTAGTGCAG,8380 fluorescence intensity (a.u.)
3,CACCGCGATGACTCTGCCTACTCTCTCCGTGCCTCGCTCCCGGAGTCACCTAGTGCAG,9270 fluorescence intensity (a.u.)
4,ACATGTGGGGTTTGTTGTTGGCTCCGCCAGGTTAAACATGCGGAGTCACCTAGTGCAG,8720 fluorescence intensity (a.u.)
5,CCGACATCGCGCGCGTCTCCGCCATGCTGGCGCCTTCACCCGGAGTCACCTAGTGCAG,12800 fluorescence intensity (a.u.)
6,TCACTTTTCATCCACTCTCCCATAATATCATCTTTCCGTTCGGAGTCACCTAGTGCAG,9170 fluorescence intensity (a.u.)
7,TACGCAAAAACTTTTCATCCTGTCACATCGAATGTTTGGACGGAGTCACCTAGTGCAG,8300 fluorescence intensity (a.u.)
8,TTATTCCACTCCCAGCTGGTGTTGCACATTGGTTCTACAACGGAGTCACCTAGTGCAG,8880 fluorescence intensity (a.u.)
9,ATCATTTTTTTCGATTATTGGTAGTATCATTAGTTTTTATCGGAGTCACCTAGTGCAG,10400 fluorescence intensity (a.u.)
10,TGATTTTTCCGCTATTTTCTCCCACGGTTTCCACGTCGCGCGGAGTCACCTAGTGCAG,9360 fluorescence intensity (a.u.)
11,AACAATTAGCGATCTCCCACTTCTAAACAGCGGTTTTTTTCGGAGTCACCTAGTGCAG,8180 fluorescence intensity (a.u.)
12,CCTTCACTCGCCCGTGTCTTTAAAACCGGGTCACGCGCGTCGGAGTCACCTAGTGCAG,8190 fluorescence intensity (a.u.)
13,TCATGGTATTTATTTGGTTTCCACTAACCCTGTTCATGGTCGGAGTCACCTAGTGCAG,11700 fluorescence intensity (a.u.)
14,CTCTGTGGGGCTTTGGACGGCCGGCGGTGGGGACGAGGTCCGGAGTCACCTAGTGCAG,8080 fluorescence intensity (a.u.)
15,GCGTCCAATCCCCACCCTCCATTCGACCTCCTTCTTAACTCGGAGTCACCTAGTGCAG,9970 fluorescence intensity (a.u.)
16,GCGGCGGACTTCTCCCTCGGCGCCGCCATCTCTCGCCGCCCGGAGTCACCTAGTGCAG,9190 fluorescence intensity (a.u.)
17,CTTCGCACGTTCGCCCGCTTAGAAAATCTCTTCGCTCGGACGGAGTCACCTAGTGCAG,8530 fluorescence intensity (a.u.)
18,GCTTACATTACTGTATATATCACCTTCTCCGCTCATTTCTCGGAGTCACCTAGTGCAG,11100 fluorescence intensity (a.u.)
19,TTTGTTAGGTTGTGTTCCTTAGCATGCACATATTCCCAAACGGAGTCACCTAGTGCAG,9440 fluorescence intensity (a.u.)
20,GCATATCCTACGTTCTCTCCTGTATCCTCCCGTGCATCGGCGGAGTCACCTAGTGCAG,8880 fluorescence intensity (a.u.)
21,GTCCCTACTGTTTACTACCACTCTTTCTGATCTATGTAGACGGAGTCACCTAGTGCAG,9750 fluorescence intensity (a.u.)

row,Sequence,binding signal
1,ACATTAGATCTGTTCAGCGATTCGTGCTGTATTTTCTCACCGGAGTCACCTAGTGCAG,8900 fluorescence intensity (a.u.)
2,AGCTCTAGCTTTCTCTTCTTCCTAGCAAATTATAATTAACCGGAGTCACCTAGTGCAG,8300 fluorescence intensity (a.u.)
3,AGAGGTGGAGGAGAGGAGGGGAGGGGAGGGGAGGTGAGGGCGGAGTCACCTAGTGCAG,18700 fluorescence intensity (a.u.)
4,CCCTATCCGCCCACACCGTCGCGCTCCAACTACCCACTACCGGAGTCACCTAGTGCAG,9030 fluorescence intensity (a.u.)
5,TAGGGCATATTTGGGTTTGTCTTACATGATTATCAACTTACGGAGTCACCTAGTGCAG,13400 fluorescence intensity (a.u.)
6,ATTGCTGTCGCCTTTCTTGATTTTTCTTTTTACTGATCTCCGGAGTCACCTAGTGCAG,9620 fluorescence intensity (a.u.)
7,CGCCTGCTGCTTCGACCGCCACTACCTCAACCTGCAATCCCGGAGTCACCTAGTGCAG,8500 fluorescence intensity (a.u.)
8,TTCTGGATCTTGACTCTTGACCAGTTCATCCACACGTGTGCGGAGTCACCTAGTGCAG,8540 fluorescence intensity (a.u.)
9,CACATCCACGTGTCCGCGTCGTTTGCCTCCTCGCCAATATCGGAGTCACCTAGTGCAG,12100 fluorescence intensity (a.u.)
10,GTCTACTTGTTTGGTGTAATTTATTTTTTTTCTTTCGCTTCGGAGTCACCTAGTGCAG,9740 fluorescence intensity (a.u.)
11,TGTTTTTCGTTCATTCATAGGATCAAGTGCTCCAATAATTCGGAGTCACCTAGTGCAG,8430 fluorescence intensity (a.u.)
12,AACTTTTCTATCACATCAAAACATTTCTACACACACAAACCGGAGTCACCTAGTGCAG,9200 fluorescence intensity (a.u.)
13,TTCTTGATCTTTCTGGTTTCTACTGGTTGATTGTACACTTCGGAGTCACCTAGTGCAG,8500 fluorescence intensity (a.u.)
14,GTTCCTCGTGTACGCTTTTCAAATTGCTAAACGTTTTTTCCGGAGTCACCTAGTGCAG,9350 fluorescence intensity (a.u.)
15,TATTATTTTACCTCAATAACTCTAGCTCCAGTCCCTTCTACGGAGTCACCTAGTGCAG,8180 fluorescence intensity (a.u.)
16,ACTCTTTCATGCAATAAACATCTACAACGTAATATCTTCTCGGAGTCACCTAGTGCAG,8130 fluorescence intensity (a.u.)
17,GACCGAACTACTAACCGAATTTCTCGATTTCGGTCTTTTCCGGAGTCACCTAGTGCAG,8450 fluorescence intensity (a.u.)
18,TGGGGATGGCTGGTGAAGTGGCAGATTAGGGCTGAAAGCTCGGAGTCACCTAGTGCAG,8650 fluorescence intensity (a.u.)
19,ACCTATTGGGGCCTTGTCCGCAAAAATCGATTATGTACTACGGAGTCACCTAGTGCAG,8630 fluorescence intensity (a.u.)
20,AGTTCTGAAGGCTCCTTGCTCTGCGTCTTGTACATACATACGGAGTCACCTAGTGCAG,10900 fluorescence intensity (a.u.)
21,TCCCCATCGATCGACGTCCTCCGCCTGATGAGCACCCGCTCGGAGTCACCTAGTGCAG,10000 fluorescence intensity (a.u.)
